# Data from patent publication US20110143332A1, “METHOD FOR IDENTIFYING MICROORGANISM OR DETECTING ITS MORPHOLOGY ALTERATION USING SURFACE ENHANCED RAMAN SCATTERING (SERS)” (NATIONAL YANG-MING UNIVERSITY, priority 2007, published 2011).
# At least one structure is not confirmed: it was looked up by name or label, or the drawing left a doubt.
# Test system: Escherichia coli JM109(mutant)
# Assay: SERS monitoring of antibiotic effect on bacteria mounted on Ag/AAO substrate
# Format: cell-based
# Conditions: 50 μg/ml tetracycline; various time points; 0.5% agarose gel; FIGS. 8 and 9
# Description: Fourteen laboratory strains, Escherichia coli JM109, Escherichia coli JM109(mutant), Enterococcus faecalis 7-18 uE, Enterococcus faecium 13631, Staphylococcus aureus 13649, Staphylococcus aureus 13615, Streptococcus agalactiae 13640, Enterococcus faecalis 13641 C2, Klebsiella pneumoniae 13641 C1, Proteus mirabilis 13621 C1, Enterobacter cloacae 13457 C2, E. coli 13594 C1, E. coli 13650, Escherichia coli JM109(mutant) and E. coli 13634 were analyzed. Bacteria were grown in 5 mL of LB broth (˜6 h) to OD600=˜0.5, washed five times with PBS, and resuspended in 0.1 ml of PBS. About 3˜5 μl of the bacteria suspension is placed on the Ag/AAO substrate. 0.5% agarose gel was used to mount the bacterial samples for inhibiting the movement of bacteria. Five antibiotics: ampicillin, bacitracin, vancomycin, tetracycline and gentamycin were used in the examples. The former three could interfere with construction of the bacterial cell wall. The last two inhibited the protein synthesis in bacteria via disrupting the binding between tRNA and ribosome.
# A Jobin Yvon Raman microscope (model LabRAM HR800) was used to observe the scattering excited by a 632.8 nm He—Ne laser. The spectral data acquisition time was in the 1-10 s range and the SERS spectra were obtained with a 100× microscope objective for excitation/collection. […]
compound,measurement,value
CN(C)[C@@H]1C(O)=C(C(N)=O)C(=O)[C@@]2(O)C(O)=C3C(=O)c4c(O)cccc4[C@@](C)(O)[C@H]3C[C@@H]12 [tetracycline],change of SERS spectra over time (in words),Different new peaks were observed at different time points
